According to patent US20220227882A1 (TRUSTEES OF TUFTS COLLEGE, published 2022):
These are yes or no findings as the source states them, for the method shown. Some binding calls cover weakened binding; strength is not graded here.

Key:
[1] = biological target: T1, Full-length human ADAM8 on cells (HEK293-ADAM8 stable or transfected cells; also endogenous ADAM8 of breast cell lines and PDX tumors) (human) (UniProt P78325); experiment: IHC on breast control cell line microarray, ADP-optimized conditions, 1:100; IHC, newly optimized ADP-specific conditions; staining barely detectable
T1 sequence: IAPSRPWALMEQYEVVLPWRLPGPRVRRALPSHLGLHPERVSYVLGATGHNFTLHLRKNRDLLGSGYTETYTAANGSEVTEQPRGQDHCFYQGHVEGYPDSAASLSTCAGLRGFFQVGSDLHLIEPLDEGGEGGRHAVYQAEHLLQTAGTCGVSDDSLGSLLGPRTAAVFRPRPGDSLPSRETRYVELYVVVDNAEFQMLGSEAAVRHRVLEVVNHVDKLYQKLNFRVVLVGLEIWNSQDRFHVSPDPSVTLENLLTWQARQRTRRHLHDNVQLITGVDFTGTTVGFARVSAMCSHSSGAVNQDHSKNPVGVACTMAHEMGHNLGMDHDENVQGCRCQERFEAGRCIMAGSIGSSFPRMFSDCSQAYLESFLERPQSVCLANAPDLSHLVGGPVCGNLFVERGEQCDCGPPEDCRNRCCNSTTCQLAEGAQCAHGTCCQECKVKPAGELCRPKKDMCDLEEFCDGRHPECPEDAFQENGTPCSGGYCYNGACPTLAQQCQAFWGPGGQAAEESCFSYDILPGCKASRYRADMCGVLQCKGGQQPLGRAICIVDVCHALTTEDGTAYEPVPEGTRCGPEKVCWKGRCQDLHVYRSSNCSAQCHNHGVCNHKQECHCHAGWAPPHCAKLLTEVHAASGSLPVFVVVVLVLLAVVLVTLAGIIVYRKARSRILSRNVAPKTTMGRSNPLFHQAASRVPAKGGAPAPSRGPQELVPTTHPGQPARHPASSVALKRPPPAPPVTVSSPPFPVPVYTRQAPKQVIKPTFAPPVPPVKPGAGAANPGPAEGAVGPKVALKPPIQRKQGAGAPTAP

[2] = biological target: T2, Remnant form of human ADAM8 on HEK293 cells (HEK293-remnant-ADAM8) (human) (UniProt P78325); experiment: FACS, stable HEK293 cells
T2 sequence: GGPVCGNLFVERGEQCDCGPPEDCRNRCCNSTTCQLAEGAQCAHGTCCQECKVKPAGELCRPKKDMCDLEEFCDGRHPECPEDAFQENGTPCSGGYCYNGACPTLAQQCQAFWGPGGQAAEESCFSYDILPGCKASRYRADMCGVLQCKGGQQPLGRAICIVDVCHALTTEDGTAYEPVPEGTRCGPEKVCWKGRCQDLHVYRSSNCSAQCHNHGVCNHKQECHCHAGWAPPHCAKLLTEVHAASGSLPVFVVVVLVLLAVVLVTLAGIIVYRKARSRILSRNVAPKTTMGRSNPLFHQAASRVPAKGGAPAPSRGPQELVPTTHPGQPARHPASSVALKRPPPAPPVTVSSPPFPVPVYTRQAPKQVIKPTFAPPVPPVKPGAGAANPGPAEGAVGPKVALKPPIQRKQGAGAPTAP

[3] = biological target: T1, Full-length human ADAM8 on cells (HEK293-ADAM8 stable or transfected cells; also endogenous ADAM8 of breast cell lines and PDX tumors) (human); experiment: FACS, stable HEK293 cells
[4] = biological target: T1, Full-length human ADAM8 on cells (HEK293-ADAM8 stable or transfected cells; also endogenous ADAM8 of breast cell lines and PDX tumors) (human); experiment: FACS, HEK293-ADAM8 cells, unfixed and paraformaldehyde-fixed
[5] = biological target: T1, Full-length human ADAM8 on cells (HEK293-ADAM8 stable or transfected cells; also endogenous ADAM8 of breast cell lines and PDX tumors) (human); experiment: IHC, control cell line microarray, ADP-optimized conditions, 1:100
[6] = biological target: T1, Full-length human ADAM8 on cells (HEK293-ADAM8 stable or transfected cells; also endogenous ADAM8 of breast cell lines and PDX tumors) (human); experiment: FACS, unfixed and paraformaldehyde-fixed HEK293-ADAM8 cells; FACS, HEK-A8-2D cells, native/unfixed and fixed (FIG. 41A)
[7] = biological target: T2, Remnant form of human ADAM8 on HEK293 cells (HEK293-remnant-ADAM8) (human); experiment: FACS, HEK293 cells with remnant ADAM8
[8] = biological target: T3, Recombinant human ADAM8 (rHuADAM8) ectodomain protein (aa 17-497), ACRO Biosystems AD8-H5223 (human) (UniProt P78325); experiment: ELISA, recombinant ADAM proteins
T3 sequence: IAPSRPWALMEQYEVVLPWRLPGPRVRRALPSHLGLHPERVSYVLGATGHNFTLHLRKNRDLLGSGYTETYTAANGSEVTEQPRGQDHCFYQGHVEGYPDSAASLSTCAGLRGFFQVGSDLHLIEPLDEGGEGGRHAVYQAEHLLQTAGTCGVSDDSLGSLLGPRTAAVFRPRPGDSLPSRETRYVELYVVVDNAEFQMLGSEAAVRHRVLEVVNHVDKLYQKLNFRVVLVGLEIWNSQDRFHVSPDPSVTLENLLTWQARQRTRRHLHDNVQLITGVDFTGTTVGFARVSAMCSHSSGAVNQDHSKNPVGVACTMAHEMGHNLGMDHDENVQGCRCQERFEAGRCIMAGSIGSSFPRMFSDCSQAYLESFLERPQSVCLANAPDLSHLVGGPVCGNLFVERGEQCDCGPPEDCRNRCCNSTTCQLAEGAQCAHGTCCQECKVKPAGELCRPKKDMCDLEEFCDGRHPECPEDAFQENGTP

[9] = biological target: T1, Full-length human ADAM8 on cells (HEK293-ADAM8 stable or transfected cells; also endogenous ADAM8 of breast cell lines and PDX tumors) (human); experiment: FACS, HEK293 cells with EV, full-length or remnant ADAM8; FACS, HEK293 cells stably expressing full-length ADAM8 (FIG. 33B)
[10] = biological target: T2, Remnant form of human ADAM8 on HEK293 cells (HEK293-remnant-ADAM8) (human); experiment: FACS, HEK293 cells with remnant ADAM8, 2 µg antibody

Measured: binding

B1: ADP3 (antibody, IgG1, V domains shown)
VH: EVKLEESGGGLVQPGGSMKLSCAASGFTFSDAWMDWVRQSPEKGLEWVAEIRGKVNNLATYYVESVKGRFTISRDDSKSSVYLQMNSLRAEDTGIYYCLGRYDATYAMDYWGQGTSVTVSS
VL: DVVMTQTPLSLPVSLGDQASISCRSSQSLVHSDGNTYLHWYLQKPGQSPKLLIYKLSNRFSGVPDRFSGSGSGTDFTLKISRVEAEDLGVYFCSQSTHVPWTFGGGTKLEIK
binds: [1] | [2] | [3] | [4] | [5] | [6] | [7] | [8] | [9]

B2: ADP2 (antibody, V domains shown)
VH: EVKLVESGGGLVQPGGSLSLSCAASGFSFPDYYMSWVRQPPGKALEWLGFIRDSANGYTTEYIASVKGRFTFSRDNSQSILYLQMNALRAEDSATYYCARYSRYYGMDYWGQGTSVTVSS
VL: SIVMTQTPKILLVSAGDRVTITCKASQTVNYDVAWYQQKPGQSPKPVIYFASNRYTGVPDRFTGSGFGTDFTFTISTVQAEDLAVYFCQQDYSAPWTFGGGTKLEIK
notes: also called mADP2; mouse ADP2
binds: [2] | [10] | [7]

B3: ADP13 (antibody, IgG1, V domains shown)
VH: EVQLQQSGPEMVKPGTSVKISCKASGYTFTDYYINWVKQSHGKSLEWIGDISPNIGGATYNPKFKGKAILTVDKSARTAYMELRSLTSEDSAVYCCTRGGSSYPYFYAMDYWGQGTSVTVSS
VL: DIVMSQSPSSLAVSVGEKVTMSCKSSQSLLYSSNQKKYLAWYQQKPGQSPKLLIYWASTRESGVPDRFTGSGSGTDFTLTISSVKAEDLAVYYCQQFYSYPYTFGGGTKLEINR
notes: also called mADP13; mouse ADP13
binds: [2] | [10] | [7]
